Data as given in PubChem BioAssay AID743121 (NCATS, 2013)

- Purpose: 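Knock-downs that sensitise breast cancer cells to camptothecin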 (primary screen)
- Cells: MDA-MB-231 cells, a human breast cancer line
- Knock-down reagent: single siRNA against human genes, 20 nM siRNA (0.8 pmol per well)
- Duration: 120 h (drug added 48 h after transfection, read 72 h later)
- Treatment: camptothecin 20 nM (about EC30) for 72 h; vehicle 0.1% DMSO in parallel plates
- Read-out: 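Cell viability by ATP luminescence (CellTiter-Glo) as % of non-targeting siRNA wells, and the log2 ratio of viability without drug over viability with camptothecin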
- Scale: log2 vehicle/camptothecin viability: higher = stronger sensitisation to camptothecin; viability with camptothecin and viability without drug: higher = more viable cells
- Call rule: 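Active genes have an RSA gene-level p-value below 0.001, computed from the ratios of their separate siRNAs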
The whole screen tested about 26,000 reagents; this is a part drawn at random. Of all reagents, 167 (0.63%) are marked active. 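Calls are per gene from RSA p-values that are not deposited; an individual active-marked siRNA can sensitise only weakly.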 Entries without a mark were called inactive. Reagents against one gene are numbered here.

| gene symbol | reagent no. | log2 vehicle/camptothecin viability | viability with camptothecin (% of control) | viability without drug (% of control) |
| --- | --- | --- | --- | --- |
| BRPF1 | 1 | 0.109 | 94.9 | 102 |
| BRPF1 | 2 | -0.0104 | 92.7 | 92 |
| BRPF1 | 3 | 0.0565 | 87.4 | 90.9 |
| BRPF1 | 4 | -0.103 | 45.4 | 42.3 |
| AVPR2 | 1 | 0.0697 | 41.3 | 43.3 |
| AVPR2 | 2 | 0.023 | 79.3 | 80.6 |
| AVPR2 | 3 | -0.398 | 77.2 | 58.6 |
| AVPR2 | 4 | -0.7 | 119 | 73.3 |
| CXCR1 | 1 | -0.0086 | 78 | 77.6 |
| CXCR1 | 2 | -0.365 | 103 | 80.1 |
| CXCR1 | 3 | -0.303 | 102 | 82.9 |
| CXCR1 | 4 | -0.276 | 47.1 | 38.9 |
| SGCA | 1 | -0.316 | 23.4 | 18.8 |
| SGCA | 2 | -0.18 | 66 | 58.3 |
| SGCA | 3 | -0.393 | 57.2 | 43.6 |
| SGCA | 4 | -0.576 | 105 | 70.6 |
| APLP1 | 1 | -0.171 | 92.8 | 82.5 |
| APLP1 | 2 | -0.16 | 115 | 103 |
| APLP1 | 3 | -0.513 | 101 | 70.5 |
| APLP1 | 4 | -0.431 | 92 | 68.3 |
| PHF14 | 1 | -0.336 | 64.8 | 51.4 |
| PHF14 | 2 | 0.678 | 27.1 | 43.4 |
| PHF14 | 3 | -0.214 | 94 | 81.1 |
| PHF14 | 4 | -0.168 | 110 | 98 |
| SLC1A4 | 1 | 0.0445 | 78.8 | 81.3 |
| SLC1A4 | 2 | -0.281 | 91.8 | 75.6 |
| SLC1A4 | 3 | -0.191 | 115 | 101 |
| SLC1A4 | 4 | 0.00847 | 66.1 | 66.5 |
| LMTK3 | 1 | -0.167 | 95.4 | 84.9 |
| LMTK3 | 2 | 0.273 | 69.6 | 84.2 |
| LMTK3 | 3 | -0.26 | 68.4 | 57.1 |
| LMTK3 | 4 | -0.36 | 66.2 | 51.6 |
| SRPRB | 1 | -0.216 | 85.7 | 73.8 |
| SRPRB | 2 | -0.53 | 88.4 | 61.3 |
| SRPRB | 3 | 0.26 | 27.9 | 33.4 |
| SRPRB | 4 | -0.244 | 127 | 107 |
| GSTZ1 | 1 | -0.557 | 48.1 | 32.7 |
| GSTZ1 | 2 | 0.159 | 65.1 | 72.7 |
| GSTZ1 | 3 | -0.178 | 94 | 83.1 |
| PRSS1 | 1 | -0.344 | 64.1 | 50.5 |
| PRSS1 | 2 | 0.0865 | 85.9 | 91.2 |
| PRSS1 | 3 | -0.356 | 116 | 90.7 |
| PRSS1 | 4 | -0.155 | 112 | 101 |
| PRSS1 | 5 | 0.433 | 55.6 | 75.1 |
| RLBP1 | 1 | 0.0455 | 76.8 | 79.2 |
| RLBP1 | 2 | -0.249 | 76.8 | 64.6 |
| RLBP1 | 3 | 0.0861 | 31.3 | 33.2 |
| SORBS1 | 1 | -0.19 | 112 | 98.2 |
| SORBS1 | 2 | 0.287 | 89.4 | 109 |
| SORBS1 | 3 | -0.0434 | 86.3 | 83.8 |
| CLIC4 | 1 | 0.122 | 97.5 | 106 |
| CLIC4 | 2 | -0.468 | 79 | 57.1 |
| CLIC4 | 3 | -0.031 | 120 | 118 |
| CLIC4 | 4 | -0.396 | 65 | 49.4 |
| PPP1R7 | 1 | -0.233 | 88.1 | 74.9 |
| PPP1R7 | 2 | -0.377 | 112 | 85.9 |
| PPP1R7 | 3 | -0.16 | 98.7 | 88.3 |
| PPP1R7 | 4 | -0.245 | 89 | 75.1 |
| ANG | 1 | -0.0129 | 48.9 | 48.4 |
| ANG | 2 | 0.248 | 64.1 | 76.2 |
| ANG | 3 | 0.741 | 37.8 | 63.2 |
| ANG | 4 | -0.13 | 109 | 100 |
| MEN1 | 1 | -0.458 | 118 | 85.7 |
| MEN1 | 2 | -0.276 | 85.3 | 70.5 |
| MEN1 | 3 | -0.134 | 73.8 | 67.3 |
| MEN1 | 4 | 0.332 | 74 | 93.1 |
| USP9Y | 1 | -0.146 | 120 | 109 |
| USP9Y | 2 | -0.386 | 37.5 | 28.7 |
| USP9Y | 3 | -0.033 | 75.2 | 73.5 |
| USP9Y | 4 | -0.394 | 94.4 | 71.8 |
| PDE8A | 1 | -0.278 | 128 | 105 |
| PDE8A | 2 | -0.196 | 66.6 | 58.1 |
| PDE8A | 3 | -0.373 | 73.3 | 56.6 |
| PDE8A | 4 | -0.265 | 108 | 90.2 |
| PARP2 | 1 | -0.338 | 97.3 | 77 |
| PARP2 | 2 | -0.234 | 101 | 85.6 |
| PARP2 | 3 | 0.139 | 95.3 | 105 |
| PARP2 | 4 | -0.268 | 74.5 | 61.8 |
| FSD1 | 1 | -0.153 | 93.7 | 84.3 |
| FSD1 | 2 | -0.922 | 51.1 | 27 |
| FSD1 | 3 | -0.107 | 93.9 | 87.2 |
| EN1 | 1 | -0.368 | 96 | 74.4 |
| EN1 | 2 | -0.42 | 71.1 | 53.1 |
| EN1 | 3 | 0.018 | 96 | 97.2 |
| EN1 | 4 | -0.245 | 90.1 | 76 |
| RAB1A | 1 | -0.378 | 56.6 | 43.6 |
| RAB1A | 2 | 0.418 | 34.4 | 46 |
| RAB1A | 3 | -0.279 | 124 | 102 |
| RAB1A | 4 | -0.0951 | 104 | 97.5 |

Looked up above:
Value for SLC1A4 #4 under “log2 vehicle/camptothecin viability”: 0.00847
PARP2 #4, viability without drug (% of control) → 61.8
Entry for ANG #3 under “log2 vehicle/camptothecin viability”: 0.741
USP9Y #1, log2 vehicle/camptothecin viability → -0.146
Entry of MEN1 #2 in “viability with camptothecin (% of control)”: 85.3
PHF14 #1, log2 vehicle/camptothecin viability: -0.336
